This test is described as follows: qHTS Assay for Lipid Storage Modulators in Drosophila S3 Cells.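 As to cell number change: cells counted by Cell Tracker Red CMTPX staining in the red channel.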 The following applies: BODIPY lipid droplet fluorescence, 18-24 h; for cell number change: measured here: cell count max response, cells fed with added oleic acid. The method, boiled down:
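Drosophila S3 cells loaded with oleic acid (400 uM, as added) and compounds at several concentrations; lipid droplets imaged by 488-nm laser-scanning cytometry, 500–530 nm intensity and object ratio to cell channel. Percent activity normalized to 20 uM Triacsin C.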

[1] abbreviates: measured here: lipid fluorescence (Fed channel) AC50, cells fed with added oleic acid.
Where [2] appears, read: measured here: cell number channel AC50, cells fed with added oleic acid.

Each structure is given as a SMILES string. The list shows a part of the results. The main result of the screen is listed elsewhere. These columns were measured beside it and carry no call. Most of these compounds were active or inconclusive in the main read-out, so they are no random draw. Potencies come from curve fits of mixed quality, noted in brackets.

For the compound `Cc1cccc(C)c1NC(=O)C1CC(=O)N(C(C)C)C1` (stereo not drawn), the cell number change worked out at 12.7%. In addition, the half-maximal activity concentration (AC50) (commonly the midpoint of the concentration-response curve, whichever way the signal moves) under setting [1] was 14.6 µM [rising, single point].

As to `Cn1cc(S(=O)(=O)N2CCN(C(=O)c3ccco3)CC2)c(=O)n(C)c1=O`, the cell number change was -4.81%. The AC50 under setting [1] is 6.51 µM [rising, single point].

On to `O=C(O)/C=C/C(=O)N1CCN(Cc2ccc3c(c2)OCO3)CC1`, for which the cell number change came to 37.8%. The AC50 under setting [2] was 10.3 µM [rising, partial curve, poor fit].

On to `COc1cnc(-c2ccccn2)nc1Oc1ccc(F)cc1F`, for which the cell number change is -4.82%. For the same compound, the half-maximal activity concentration (AC50) under setting [2] is 1.46 µM [rising, partial curve]. Also, under setting [1], the AC50 is 2.06 µM [rising, partial curve].

Regarding `CCC(=O)c1cc2c(cc1NC(=O)c1cccs1)OCCO2`, the cell number change was -37.5%. The AC50 under setting [2] is 1.03 µM [falling, full curve, poor fit]. In addition, the AC50 under setting [1] was 0.82 µM [rising, full curve, poor fit].

`CC1CC(C)(C)CC2(C1)NC(=O)N(CC(=O)N(Cc1ccccc1)c1ccccc1)C2=O` (stereo not drawn): the cell number change is -22.3%. The concentration at half-maximal activity (AC50) under setting [1] was 7.31 µM [falling, single point].

For the compound `CCCNC(=O)NC(=O)CSc1cccc(C(F)(F)F)c1`, the cell number change is -36%.

Regarding `CCN(CC)S(=O)(=O)c1ccc(Cl)c(NC(=O)COC(=O)/C=C/c2cc(OC)c(OC)c(OC)c2)c1`, the cell number change is -33.3%. In addition, the half-maximal activity concentration (AC50) under setting [2] was 25.9 µM [falling, single point]. The AC50 under setting [1] was 3.66 µM [rising, full curve].

Turning to `COc1ccc(NC(=O)C2CCCN(S(=O)(=O)c3cnc[nH]3)C2)cc1` (stereo not drawn), the cell number change was -28.5%. The half-maximal activity concentration (AC50) under setting [1] is 5.8 µM [rising, full curve].

Consider `Cc1occc1C(=O)N1CCN(C(=O)C2CCCO2)CC1` (stereo not drawn), for which the cell number change is -2.05%. Moreover, the AC50 under setting [1] is 23.1 µM [falling, partial curve].

As to `CCNC(=O)N1CCOCC1`, the cell number change is -19.1%. Moreover, the AC50 under setting [1] is 0.206 µM [falling, full curve, poor fit].

As for `COc1ccc(N2C(=O)[C@@H]3[C@H](C2=O)[C@H](C(C)=O)N2c4ccccc4C=C[C@@H]32)cc1`, the cell number change was found to be 9.5%. Under setting [2], the AC50 is 0.164 µM [rising, full curve, poor fit].

As to `Cc1ccccc1NC(=O)OCCN1CCN(Cc2ccccc2)CCC1=O`, the cell number change was determined as 23.6%.

For `CCCOP(=O)(OCCC)c1nc(-c2ccccc2)oc1NCc1ccccc1`, the cell number change was 15.2%. Besides, the AC50 under setting [1] was 1.84 µM [rising, full curve, poor fit].

For the compound `N#C/C=C(/c1ccc(F)cc1)N1CCOCC1`, the cell number change amounted to 52.6%. Moreover, the AC50 under setting [2] is 18.4 µM [rising, single point]. Further, the AC50 under setting [1] is 0.58 µM [rising, single point].

Take `O=C(Nc1ccc(Cl)c(Cl)c1)Nc1nnc(-c2ccncc2)s1`: the cell number change is 97.8%. In addition, the AC50 under setting [2] was 29.1 µM [rising, single point]. In addition, the concentration at half-maximal activity (AC50) under setting [1] was 2.06 µM [rising, single point].

`CCn1c(N2CCN(S(=O)(=O)c3ccccc3C(F)(F)F)CC2)nc2ccccc21`: the cell number change is -8.09%.

With `CCc1nc(Nc2ccccc2OC)c2oc3ccccc3c2n1`, the cell number change amounted to 60.4%. In addition, under setting [2], the AC50 was 18.4 µM [rising, single point]. Under setting [1], the AC50 was 16.4 µM [rising, partial curve].

Turning to `S=C(NC1CCCCC1)N1CCc2ccccc2C1`, the cell number change was -7.94%.

With `COc1ccc(CN2CCN(C(=O)c3ccc(CNS(=O)(=O)c4ccc(C)cc4)cc3)CC2)c(OC)c1OC`, the cell number change is -29.8%. Further, the AC50 under setting [1] was 29.1 µM [rising, single point].

For `O=C(NC1CCCCCCC1)c1ccc(F)cc1`, the cell number change is -4.17%. Besides, the AC50 under setting [2] was 0.58 µM [falling, single point]. Besides, under setting [1], the AC50 is 0.651 µM [falling, single point].

For `Cc1cc(C=C2C(=O)c3ccccc3C2=O)c(C)n1C`, the cell number change is 25.1%.

In the case of `CCOC(=O)C1=C(CC)OC(N)=C(C#N)C1c1ccc(OC)c(C)c1OC` (stereo not drawn), under setting [1], the AC50 was 16.4 µM [rising, single point].

With `Nc1nnc(CC(=O)N/N=C/c2cccc([N+](=O)[O-])c2)s1`, the cell number change is -9.21%.

Consider `COc1ccc(C(=O)Nc2cccc(/C(C)=N\NC(=O)c3ccoc3C)c2)cc1OC`, for which the cell number change was -26.5%. The AC50 under setting [1] was 0.58 µM [rising, single point].

On to `Cc1ccc(C(=O)NCC2CCCO2)cc1N1CCCC1=O` (stereo not drawn), for which the cell number change is -29%.

`NC(=O)CC(NC(=O)Cc1ccc(Br)cc1)c1ccc(NCc2ccccn2)c([N+](=O)[O-])c1` (stereo not drawn): the cell number change came to 12.5%. Also, the AC50 under setting [1] is 8.2 µM [rising, partial curve, poor fit].

Turning to `C=CCNC(=S)/C(=C(/[O-])c1ccccc1Br)[n+]1ccccc1`, the cell number change is 48.6%.

Turning to `Cc1nnc(-c2ccccc2)c[n+]1[O-]`, the cell number change is 2.24%. Further, under setting [1], the AC50 was 2.59 µM [rising, full curve, poor fit].

Consider `O=C(COc1ccc([N+](=O)[O-])cc1)Nc1ccc(N2CCN(C(=O)c3ccco3)CC2)cc1`, for which the AC50 under setting [1] is 3.26 µM [falling, partial curve, poor fit].

For the compound `Cc1cc2nc3n(c2cc1C)CC1CC(C(=O)NCc2cccc(Br)c2)N(C)C31` (stereo not drawn), the cell number change was found to be 9.77%. Also, the AC50 under setting [1] is 0.58 µM [rising, partial curve].

Take `COc1ccc2oc(C(=O)OCC(=O)N(CCC#N)c3ccccc3)c(C)c2c1`: the cell number change worked out at 28.2%. The AC50 under setting [1] was 29.1 µM [rising, single point].

With `CCCN(CC1CC1)C(=O)CCc1nnc(C(OC)c2ccccc2)o1` (stereo not drawn), the cell number change is -13.7%. Also, under setting [1], the concentration at half-maximal activity (AC50) was 11.6 µM [falling, partial curve].

(Values after PubChem BioAssay AID2685 (National Center for Advancing Translational Sciences (NCATS), 2010).)
